Test results published in patent US8476434B2, “Protein kinase modulators and method of use” (Amgen Inc., priority 2004, dated 2013).
Some of these results come from one statement about several compounds together.

Chains of the proteins cited; added tags and fusions are not shown. Residues count along the entry.
UniProt Q02763, 23-1124: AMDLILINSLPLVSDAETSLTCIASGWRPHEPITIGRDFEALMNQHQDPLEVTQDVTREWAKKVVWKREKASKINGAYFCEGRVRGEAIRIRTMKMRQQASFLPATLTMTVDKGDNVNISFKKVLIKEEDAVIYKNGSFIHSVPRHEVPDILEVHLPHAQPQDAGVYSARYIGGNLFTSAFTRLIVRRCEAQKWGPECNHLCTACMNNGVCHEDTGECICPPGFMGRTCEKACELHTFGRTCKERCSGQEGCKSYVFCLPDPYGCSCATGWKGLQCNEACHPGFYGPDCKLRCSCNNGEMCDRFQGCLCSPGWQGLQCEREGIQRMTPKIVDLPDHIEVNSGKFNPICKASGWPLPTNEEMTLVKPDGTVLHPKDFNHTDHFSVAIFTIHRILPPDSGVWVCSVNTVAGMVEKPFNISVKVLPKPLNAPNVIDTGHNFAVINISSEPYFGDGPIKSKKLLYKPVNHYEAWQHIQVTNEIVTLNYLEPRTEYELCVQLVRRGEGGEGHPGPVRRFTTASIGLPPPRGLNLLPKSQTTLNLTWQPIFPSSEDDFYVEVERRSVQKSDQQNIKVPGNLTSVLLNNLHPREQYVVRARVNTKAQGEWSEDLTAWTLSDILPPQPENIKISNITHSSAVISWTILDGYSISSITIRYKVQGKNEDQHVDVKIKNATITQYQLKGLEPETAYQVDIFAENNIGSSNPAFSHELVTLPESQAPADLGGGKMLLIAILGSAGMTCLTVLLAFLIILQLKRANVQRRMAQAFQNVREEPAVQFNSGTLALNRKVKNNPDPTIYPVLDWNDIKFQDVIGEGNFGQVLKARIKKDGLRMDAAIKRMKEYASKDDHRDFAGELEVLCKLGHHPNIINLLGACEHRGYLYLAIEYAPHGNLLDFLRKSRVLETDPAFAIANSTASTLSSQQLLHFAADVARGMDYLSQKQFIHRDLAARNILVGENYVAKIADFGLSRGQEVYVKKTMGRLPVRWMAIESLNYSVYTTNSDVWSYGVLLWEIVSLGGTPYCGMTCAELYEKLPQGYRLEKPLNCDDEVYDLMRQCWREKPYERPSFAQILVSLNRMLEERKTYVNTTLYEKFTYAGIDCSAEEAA

These compounds were tested against Tie-2 kinase enzyme (Homo sapiens, UniProt Q02763) (assay: Tie-2 Homogenous Time Resolved Fluorescent (HTRF) kinase assay). Conditions: read-out: IC50's for the inhibition of Tie-2 as measured by the HTRF assay.
Assay type: biochemical

Row | Structure (SMILES) | IC50
1 | CNc1nccc(-c2cccnc2Oc2ccc(F)c(C(=O)Nc3cc(C(F)(F)F)ccc3N3CCCC3)c2)n1 [Example 374, 2-fluoro-5-((3-(2-(methylamino)-4-pyrimidinyl)-2-pyridinyl)oxy)-N-(2-(1-pyrrolidinyl)-5-(trifluoromethyl)phenyl) benzamide] | < 5 µM
2 | CNc1ncnc(-c2cccnc2Oc2ccc(F)c(C(=O)Nc3cccc(OC(F)(F)F)c3)c2)n1 [Example 375, 2-fluoro-5-((3-(4-(methylamino)-1,3,5-triazin-2-yl)-2-pyridinyl)oxy)-N-(3-((trifluoromethyl)oxy)phenyl)benzamide] | < 5 µM
3 | CNc1ncnc(-c2cccnc2Oc2ccc(F)c(C(=O)N3CCc4ccc(C(F)(F)F)cc43)c2)n1 [Example 376, 4-(2-((4-fluoro-3-((6-(trifluoromethyl)-2,3-dihydro-1H-indol-1-yl)carbonyl)phenyl)oxy)-3-pyridinyl)-N-methyl-1,3,5-triazin-2-amine] | < 5 µM
4 | CNc1ncnc(-c2cccnc2Oc2cc(C(=O)N3CCc4ccc(C(F)(F)F)cc43)ccc2F)n1 [Example 377, 4-(2-((2-fluoro-5-((6-(trifluoromethyl)-2,3-dihydro-1H-indol-1-yl)carbonyl)phenyl)oxy)-3-pyridinyl)-N-methyl-1,3,5-triazin-2-amine] | < 5 µM
5 | CNc1ncnc(-c2cccnc2Oc2cc(C(=O)Nc3cccc(OC(F)(F)F)c3)ccc2F)n1 [Example 378, 4-fluoro-3-((3-(4-(methylamino)-1,3,5-triazin-2-yl)-2-pyridinyl)oxy)-N-(3-((trifluoromethyl)oxy)phenyl)benzamide] | < 5 µM
6 | CNc1ncnc(-c2cccnc2Oc2cc(C(=O)Nc3ccc(C(C)C)cc3)ccc2C)n1 [Example 381, 4-methyl-3-((3-(4-(methylamino)-1,3,5-triazin-2-yl)-2-pyridinyl)oxy)-N-(4-(1-methylethyl)phenyl) benzamide] | < 5 µM
7 | CNc1ncnc(-c2cccnc2Oc2cc(C(=O)Nc3ccc(F)c(C(F)(F)F)c3)ccc2C)n1 [Example 382, N-(4-fluoro-3-(trifluoromethyl)phenyl)-4-methyl-3-((3-(4-(methylamino)-1,3,5-triazin-2-yl)-2-pyridinyl)oxy)benzamide] | < 5 µM
8 | CNc1ncnc(-c2cccnc2Oc2cc(C(=O)Nc3cccc(C(F)(F)F)c3C)ccc2C)n1 [Example 383, 4-methyl-3-((3-(4-(methylamino)-1,3,5-triazin-2-yl)-2-pyridinyl)oxy)-N-(2-methyl-3-(trifluoromethyl)phenyl) benzamide] | < 5 µM
9 | CNc1ncnc(-c2cccnc2Oc2cc(C(=O)Nc3cc(OC)cc(C(F)(F)F)c3)ccc2C)n1 [Example 384, 4-methyl-3-((3-(4-(methylamino)-1,3,5-triazin-2-yl)-2-pyridinyl)oxy)-N-(3-(methyloxy)-5-(trifluoromethyl)phenyl) benzamide] | < 5 µM
10 | CNc1ncnc(-c2cccnc2Oc2cc(C(=O)Nc3cc(C(F)(F)F)ccc3N3CCCC3)ccc2C)n1 [Example 385, 4-methyl-3-((3-(4-(methylamino)-1,3,5-triazin-2-yl)-2-pyridinyl)oxy)-N-(2-(1-pyrrolidinyl)-5-(trifluoromethyl)phenyl) benzamide] | < 5 µM
11 | CNc1ncnc(-c2cccnc2Oc2cc(C(=O)Nc3cc(Oc4ccccc4)ccc3OC)ccc2C)n1 [Example 386, 4-methyl-3-((3-(4-(methylamino)-1,3,5-triazin-2-yl)-2-pyridinyl)oxy)-N-(2-(methyloxy)-5-(phenyloxy)phenyl) benzamide] | < 5 µM
12 | CNc1ncnc(-c2cccnc2Oc2cc(C(=O)Nc3cc(-c4ccccc4)ccc3OC)ccc2C)n1 [Example 387, 4-methyl-3-((3-(4-(methylamino)-1,3,5-triazin-2-yl)-2-pyridinyl)oxy)-N-(4-(methyloxy)-1,1′-biphenyl-3-yl)benzamide] | < 5 µM
13 | CNc1ncnc(-c2cccnc2Oc2cc(C(=O)Nc3cc(C(C)(C)C)ccc3OC)ccc2C)n1 [Example 388, N-(5-(1,1-dimethylethyl)-2-(methyloxy)phenyl)-4-methyl-3-((3-(4-(methylamino)-1,3,5-triazin-2-yl)-2-pyridinyl)oxy)benzamide] | < 5 µM
14 | CCOc1ccc(OCC)c(NC(=O)c2ccc(C)c(Oc3ncccc3-c3ncnc(NC)n3)c2)c1 [Example 389, N-(2,5-bis(ethyloxy)phenyl)-4-methyl-3-((3-(4-(methylamino)-1,3,5-triazin-2-yl)-2-pyridinyl)oxy)benzamide] | < 5 µM
15 | CNc1ncnc(-c2cccnc2Oc2cc(C(=O)Nc3cc(C(C)C)ccc3C)ccc2C)n1 [Example 390, 4-methyl-3-((3-(4-(methylamino)-1,3,5-triazin-2-yl)-2-pyridinyl)oxy)-N-(2-methyl-5-(1-methylethyl)phenyl) benzamide] | < 5 µM
16 | CNc1ncnc(-c2cccnc2Oc2cc(C(=O)Nc3cccc(OCc4ccccc4)c3)ccc2C)n1 [Example 391, 4-methyl-3-((3-(4-(methylamino)-1,3,5-triazin-2-yl)-2-pyridinyl)oxy)-N-(3-((phenylmethyl)oxy)phenyl)benzamide] | < 5 µM

Row | Structure (SMILES) | IC50
17 | CNc1ncnc(-c2cccnc2Oc2cc(C(=O)Nc3cccc(-c4ccccc4)c3)ccc2C)n1 [Example 392, N-(1,1′-biphenyl-3-yl)-4-methyl-3-((3-(4-(methylamino)-1,3,5-triazin-2-yl)-2-pyridinyl)oxy)benzamide] | < 5 µM
18 | CCOc1cccc(NC(=O)c2ccc(C)c(Oc3ncccc3-c3ncnc(NC)n3)c2)c1 [Example 393, N-(3-(ethyloxy)phenyl)-4-methyl-3-((3-(4-(methylamino)-1,3,5-triazin-2-yl)-2-pyridinyl)oxy)benzamide] | < 5 µM
19 | CNc1ncnc(-c2cccnc2Oc2cc(C(=O)Nc3cccc(OC(C)C)c3)ccc2C)n1 [Example 394, 4-methyl-3-((3-(4-(methylamino)-1,3,5-triazin-2-yl)-2-pyridinyl)oxy)-N-(3-((1-methylethyl)oxy)phenyl) benzamide] | < 5 µM
20 | CNc1ncnc(-c2cccnc2Oc2cc(C(=O)Nc3cccc(C(F)(F)F)c3)ccc2C)n1 [Example 395, 4-methyl-3-((3-(4-(methylamino)-1,3,5-triazin-2-yl)-2-pyridinyl)oxy)-N-(3-(trifluoromethyl)phenyl) benzamide] | < 5 µM
21 | CNc1ncnc(-c2cccnc2Oc2cc(C(=O)Nc3cccc(OC(F)(F)F)c3)ccc2C)n1 [Example 396, 4-methyl-3-((3-(4-(methylamino)-1,3,5-triazin-2-yl)-2-pyridinyl)oxy)-N-(3-((trifluoromethyl)oxy)phenyl)benzamide] | < 5 µM
22 | CNc1ncnc(-c2cccnc2Oc2cc(C(=O)Nc3cccc(OC(F)(F)C(F)F)c3)ccc2C)n1 [Example 397, 4-methyl-3-((3-(4-(methylamino)-1,3,5-triazin-2-yl)-2-pyridinyl)oxy)-N-(3-((1,1,2,2-tetrafluoroethyl)oxy)phenyl)benzamide] | < 5 µM
23 | CCCCCCOc1cccc(NC(=O)c2ccc(C)c(Oc3ncccc3-c3ncnc(NC)n3)c2)c1 [Example 398, N-(3-(hexyloxy)phenyl)-4-methyl-3-((3-(4-(methylamino)-1,3,5-triazin-2-yl)-2-pyridinyl)oxy)benzamide] | < 5 µM
24 | CNc1ncnc(-c2cccnc2Oc2cc(C(=O)Nc3cccc(-n4c(C)ccc4C)c3)ccc2C)n1 [Example 399, N-(3-(2,5-dimethyl-1H-pyrrol-1-yl)phenyl)-4-methyl-3-((3-(4-(methylamino)-1,3,5-triazin-2-yl)-2-pyridinyl)oxy)benzamide] | < 5 µM
25 | CNc1ncnc(-c2cccnc2Oc2cc(C(=O)Nc3cc(C(C)(C)C)on3)ccc2C)n1 [Example 400, N-(5-(1,1-dimethylethyl)-3-isoxazolyl)-4-methyl-3-((3-(4-(methylamino)-1,3,5-triazin-2-yl)-2-pyridinyl)oxy)benzamide] | < 5 µM
26 | CNc1ncnc(-c2cccnc2Oc2cc(C(=O)n3ccc4ccc(C(F)(F)F)cc43)ccc2C)n1 [Example 401, N-methyl-4-(2-((2-methyl-5-((6-(trifluoromethyl)-1H-indol-1-yl)carbonyl)phenyl)oxy)-3-pyridinyl)-1,3,5-triazin-2-amine] | < 5 µM
27 | CNc1ncnc(-c2cccnc2Oc2cc(C(=O)NCc3cccc(C(F)(F)F)c3)ccc2C)n1 [Example 405, 4-methyl-3-((3-(4-(methylamino)-1,3,5-triazin-2-yl)-2-pyridinyl)oxy)-N-((3-(trifluoromethyl)phenyl)methyl)benzamide] | < 5 µM
28 | CNc1ncnc(-c2cccnc2Oc2cc(C(=O)NCCC(C)(C)C)ccc2C)n1 [Example 406, N-(3,3-dimethylbutyl)-4-methyl-3-((3-(4-(methylamino)-1,3,5-triazin-2-yl)-2-pyridinyl)oxy)benzamide] | < 5 µM
29 | CNc1ncnc(-c2cccnc2Oc2cc(C(=O)Nc3cc(C(F)(F)F)ccc3F)ccc2C)n1 [Example 407, N-(2-fluoro-5-(trifluoromethyl)phenyl)-4-methyl-3-((3-(4-(methylamino)-1,3,5-triazin-2-yl)-2-pyridinyl)oxy)benzamide] | < 5 µM
30 | CNc1ncnc(-c2cccnc2Oc2cc(C(=O)Nc3cccc(Cl)c3Cl)ccc2C)n1 [Example 410, N-(2,3-dichlorophenyl)-4-methyl-3-((3-(4-(methylamino)-1,3,5-triazin-2-yl)-2-pyridinyl)oxy)benzamide] | < 5 µM
31 | CNc1nccc(-c2cccnc2Oc2ccc(F)c(C(=O)Nc3cc(C(F)(F)F)ccc3CN3CCN(C)CC3)c2)n1 [Example 412, 2-fluoro-5-((3-(2-(methylamino)-4-pyrimidinyl)-2-pyridinyl)oxy)-N-(2-((4-methyl-1-piperazinyl)methyl)-5-(trifluoromethyl)phenyl) benzamide] | < 5 µM
32 | CNc1ncnc(-c2cccnc2Oc2ccc(F)c(C(=O)Nc3cc(C(F)(F)F)ccc3N3CCNCC3)c2)n1 [Example 413, 2-fluoro-5-((3-(4-(methylamino)-1,3,5-triazin-2-yl)-2-pyridinyl)oxy)-N-(2-(1-piperazinyl)-5-(trifluoromethyl)phenyl) benzamide] | < 5 µM
